Article PMC4850634, “Characterization of an A-kinase anchoring protein-like suggests an alternative way of PKA anchoring in Plasmodium falciparum” (Malaria Journal, 2016)

Amino acid sequences for entries named in this document (tags omitted). A change or cut given only in a name is not applied to a line headed by its entry.
UniProt Q8I3X8: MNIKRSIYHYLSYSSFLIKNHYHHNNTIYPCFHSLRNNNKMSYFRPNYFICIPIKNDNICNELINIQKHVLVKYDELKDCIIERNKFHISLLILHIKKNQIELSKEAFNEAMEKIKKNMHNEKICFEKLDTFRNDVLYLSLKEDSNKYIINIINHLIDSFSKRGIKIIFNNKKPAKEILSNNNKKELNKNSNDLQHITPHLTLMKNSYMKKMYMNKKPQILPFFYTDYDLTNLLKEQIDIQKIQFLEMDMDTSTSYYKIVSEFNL

Target: GST-PfAKAL (P. falciparum A Kinase anchoring protein-like fused to GST) (Plasmodium falciparum) (UniProt Q8I3X8)
Assay: affinity purification with mass spectrometry; GST-PfAKAL beads incubated with P. falciparum 3D7 extracts in RIPA buffer, 4 °C, 90 min (100 µg of total parasite proteins for 10 µg of recombinant protein on beads); washes in RIPA and RIPA with 0.1 % SDS; nLC-MSMS; only the target purified

B1: Pf14-3-3I, native, in P. falciparum 3D7 parasite protein extracts (protein, UniProt C0H4V6 1-262)
chain: MATSEELKQLRCDCTYRSKLAEQAERYDEMADAMRTLVEQCVNNDKDELTVEERNLLSVAYKNAVGARRASWRIISSVEQKEMSKANVHNKNVAATYRKKVEEELNNICQDILNLLTKKLIPNTSESESKVFYYKMKGDYYRYISEFSCDEGKKEASNCAQEAYQKATDIAENELPSTHPIRLGLALNYSVFFYEILNQPHQACEMAKRAFDDAITEFDNVSEDSYKDSTLIMQLLRDNLTLWTSDLQGDQTEEKSKDEGLE
For B1, the binding was “binds”.

These are yes or no findings as the source states them, for the method shown. Binding seen in cells or lysates may run through a third protein. A yes stands for co-enrichment or nearness to the bait. Other partners may have been found.
